{
  "source": "patent US9586944B2",
  "about": "“Specific targeting of RNA expanded repeat sequences” (priority 2013, dated 2017)",
  "key": {"r(CUG)10-MBNL1 complex": {"system": "r(CUG)10-MBNL1 complex", "test": "qTR-FRET assay of r(CUG)10-MBNL1 complex formation", "format": "biochemical", "experimental": "The qTR-FRET assay used to measure the small molecule's ability to inhibit the r(CUG)10-MBNL1 complex (IC50's) was described previously and used with minor modifications. Briefly, 5′-biotinylated r(CUG)10 was folded in 1× Folding Buffer (20 mM HEPES, pH 7.5, 110 mM KCl, and 10 mM NaCl) by heating at 60° C. followed by slowly cooling to room temperature on the benchtop. The RNA was incubated with various concentrations of small molecule (0.5, 1, 5, 10, 25, 50, 100, 150 μM) at room temperature for 4 h or at 37° C. for 20 h. The buffer was adjusted to 1× Assay Buffer (20 mM HEPES, pH 7.5, 110 mM KCl, 10 mM NaCl, 2 mM MgCl2, 2 mM CaCl2, 5 mM dithiothreitol, 0.1% bovine serum albumin (BSA), and 0.5% Tween-20), and MBNL1-His6 was added. The final concentrations of RNA and MBNL1 were 80 nM and 60 nM, respectively. The samples were incubated at room temperature for 15 min. Streptavidin-XL665 (cisbio Bioassays) and anti-His6-Tb (cisbio Bioassays) were added to final concentrations of 40 nM and 0.44 ng/μL, respectively, in a total of volume of 10 μL. Samples were incubated for 1 h at room temperature and then transferred to a well of a white 384-well plate. Time-resolved fluorescence was measured on a Molecular Devices SpectraMax M5 plate reader, and the IC50 was determined by curve fitting (4-parameter logistic curve fit) as previously described.^e7"}, "r(CUG)10 [1]": {"system": "r(CUG)10", "test": "RNase T1 digestion to detect adduct formation", "format": "biochemical", "details": "room temperature 22 h"}, "r(CUG)10 [2]": {"system": "r(CUG)10", "test": "In vitro adduct formation, denaturing PAGE", "format": "biochemical", "details": "RNA 50 nM, room temperature 4 h"}, "MBNL1-His6": {"biological_target": "T1, MBNL1-His6 (Homo sapiens, UniProt Q9NR56)", "T1 construct": "His6", "T1 sequence (Q9NR56 1-388)": "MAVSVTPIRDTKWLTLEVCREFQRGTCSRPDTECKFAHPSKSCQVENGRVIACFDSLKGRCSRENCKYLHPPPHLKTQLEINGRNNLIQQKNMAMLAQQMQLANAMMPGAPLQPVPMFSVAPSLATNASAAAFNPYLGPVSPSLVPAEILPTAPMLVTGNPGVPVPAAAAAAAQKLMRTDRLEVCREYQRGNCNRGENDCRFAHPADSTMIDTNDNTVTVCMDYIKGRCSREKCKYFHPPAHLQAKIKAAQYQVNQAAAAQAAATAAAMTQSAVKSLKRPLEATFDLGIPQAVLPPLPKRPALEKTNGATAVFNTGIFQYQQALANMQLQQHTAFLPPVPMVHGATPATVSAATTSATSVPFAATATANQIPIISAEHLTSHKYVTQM", "test": "In vitro reaction with MBNL1, Western blotting", "format": "binding", "details": "0.1-100 μM, room temperature 22 h"}, "[3]": {"system": "PLEKHH2 alternative splicing", "test": "Alternative splicing of PLEKHH2 mini-gene (not controlled by MBNL1) in DM1 cell model", "format": "cell-based", "details": "HeLa cells with DM1 mini-gene"}, "[4]": {"system": "r(CUG)960-containing DMPK mRNA", "test": "DMPK mRNA expression levels in DM1 cell model by real time RT-PCR", "format": "cell-based", "details": "HeLa cells; normalized to β-actin"}},
  "note": "Read-outs that look alike come from different tables or passages of the source. For at least one compound, name, drawing or mass did not settle the structure.",
  "data": [
    {"smiles": "CCCN(CC(=O)N(CCC)CC(=O)N(CC(N)=O)Cc1cn(CCCNC(=O)CCCOc2cccc(-c3nc4ccc(-c5nc6ccc(N7CCN(C)CC7)cc6[nH]5)cc4[nH]3)c2)nn1)C(=O)CN(CCC)C(=O)CN(CCC)C(=O)CN(Cc1cn(CCCNC(=O)CCCOc2cccc(-c3nc4ccc(-c5nc6ccc(N7CCN(C)CC7)cc6[nH]5)cc4[nH]3)c2)nn1)C(=O)CNC(=O)CCCc1ccc(N(CCCl)CCCl)cc1", "note": "[Compound 2H-4-CA]", "values": [
      {"measurement": "improvement of in vitro potency by increasing the incubation time and temperature", "setting": "r(CUG)10-MBNL1 complex; 4 h/room temperature vs 37° C.", "result": "~2.5", "unit": "fold"},
      {"measurement": "IC50", "setting": "r(CUG)10-MBNL1 complex; compounds incubated with the RNA at 37° C. for 22 h, read-out: IC50 for inhibiting r(CUG)10-MBNL1 complex formation", "result": "1.8 ± 1.1", "unit": "µM"},
      {"measurement": "fold more potent than 2H-4 in vitro", "setting": "r(CUG)10-MBNL1 complex; from Table 1", "result": "~14", "unit": "fold"},
      {"measurement": "IC50", "setting": "r(CUG)10-MBNL1 complex; time-resolved FRET, 4 h/room temperature incubation with RNA, read-out: IC50 for inhibition of r(CUG)10-MBNL1 complex formation", "result": "5 ± 1", "unit": "µM"},
      {"measurement": "concentration at which protection from T1 cleavage is observed", "setting": "r(CUG)10 [1]", "result": 1, "unit": "µM"},
      {"measurement": "concentration giving complete protection from T1 cleavage", "setting": "r(CUG)10 [1]", "result": 50, "unit": "µM"},
      {"measurement": "adduct formation with r(CUG)10 in vitro (gel electrophoresis)", "setting": "r(CUG)10 [2]", "result": "reacts with r(CUG)10 in vitro"},
      {"measurement": "reaction with MBNL1 in vitro (Western blot, anti-MBNL1 and anti-biotin)", "setting": "MBNL1-His6", "result": "does not react with MBNL1"},
      {"measurement": "effect on alternative splicing of a transcript not regulated by MBNL1 (PLEKHH2)", "setting": "[3]", "result": "does not affect the alternative splicing"},
      {"measurement": "degradation of r(CUG)^exp-mRNAs containing covalent adducts", "setting": "[4]", "result": "are not degraded more"}
    ]}
  ]
}
